Earlier results in paper PMC10859675, “Short‐chain mono‐carboxylates as negative modulators of allosteric transitions in Gloeobacter violaceus ligand‐gated ion channel, and impact of a pre‐β5 strand (Loop Ω) double mutation on crotonate, not butyrate effect” (Physiological Reports, 2024).

Tested on: GLIC ECD carboxylate‐binding pockets
Settings: co-crystal structure 3eam 4hfi; ref Bocquet et al. ([2009]) and Sauguet et al. ([2013]); cited from earlier work
In the case of `CC(=O)O` [ACET, Ethanoic acid], the “Presence in Inter‐SU pocket” value is listed as “✓” and the “Presence in Intra‐SU pocket” value is listed as “✓”.

Same assay, conditions: co-crystal structures; ref Fourati et al. ([2020]); cited from earlier work
For `C/C=C/C(=O)O` [CROTON, Butenoic acid], the “Presence in Inter‐SU pocket” value is listed as “✓” and the “Presence in Intra‐SU pocket” value is listed as 0. For `O=C(O)/C=C/C(=O)O` [FUMAR, (E)‐but‐2‐enedioic acid], the “Presence in Inter‐SU pocket” value is given as “✓” and the “Presence in Intra‐SU pocket” value is given as 0. In the case of `O=C(O)CCCC(=O)O` [GLUTAR, Pentanedioic acid], the “Presence in Inter‐SU pocket” value is given as “✓” and the “Presence in Intra‐SU pocket” value is given as 0. In the case of `O=C(O)CC(=O)O` [MALON, Propanedioic acid], the “Presence in Inter‐SU pocket” value is listed as “✓” and the “Presence in Intra‐SU pocket” value is listed as 0. For `CCC(=O)O` [PROPION, Propanoic acid], the “Presence in Inter‐SU pocket” value is listed as “✓” and the “Presence in Intra‐SU pocket” value is listed as “✓”. For `O=C(O)CCC(=O)O` [SUCCIN, Butanedioic acid], the “Presence in Inter‐SU pocket” value is listed as “✓” and the “Presence in Intra‐SU pocket” value is listed as “✓”.
